The whole screen tested about 53,000 sequences, of which about 3,700 (7%) were called active.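 Rule for the calls: active = gene knockdowns whose robust z-score for IL-1 alpha signal is at least 2 or at most -2, so actives lie on both sides; inactive = the rest.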 This is one part of the list.

The assay in a line: Components of the Cytosolic LPS Sensing Pathway: Gene Identification via Genome-wide siRNA Screen.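 Note: robust z of the log signal after scaling to non-targeting control siRNA wells of the plate.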 The conditions noted are these: RAW264.7 macrophages, IL-1a HTRF, actives lie on both sides, screened at 100 nM (by protocol), cells primed 5 h with Pam3CSK4 first. The essentials:
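Supernatant IL-1a by HTRF from RAW264.7 cells primed with Pam3CSK4 (5 hours) and transfected with LipidA (24 hour) after 48h siRNA knockdown at 100 nM; cell viability checked with CellTiter-Glo.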
Take GGAAACAAAGUCAAUGUGGTT against Cnn1: the z-score is inactive: -0.522.
For the sequence GGGUACUGUAAAUUGGUCUTT against Kpna2, the z-score is inactive: -0.274.
Consider GCAUAACAGAGUCAAUACATT against Ints8, for which the z-score is inactive: 1.12.
With GGUAGAUGACUUUGACAACTT against Tnfsf9 the figure was inactive: 0.633; with GGGAAUUGCCAACUUGUUCTT against Olfr639, inactive: -0.75.
To GCAGUUCUACUCUUACACCTT against Xylt1 belongs inactive: 0.226.
Consider GGCACAAAUUUUAUGCCUGTT against Xkr8, for which the z-score is inactive: -0.134.
Consider GGGCAAUCGACUGAGAAUUTT against Lingo4, for which the z-score is inactive: -0.0246.
Regarding GGGAAGCUAGGCACUUCAUTT against Plk4, the z-score was inactive: 0.34.
With CCAACUCUAUCGUACUAAATT against Tafa5 the figure was inactive: 0.0774; with CGGAAUUAUGAUCAUUGAGTT against Bbx, inactive: -0.37; with GGUGUACGGUAUUUUGUUUTT against Radx, inactive: -0.106.
As to GGAGCAUGGUUUUAUAAUATT against Rims2, the z-score is inactive: 0.899.
GGUCUUCAACCCUGUUUGGTT against Gpsm3: the z-score is inactive: 0.329.
With CGACAGUCUAGCAUGUAACTT against Best1 the figure was inactive: 0.425; with GCCAAAACAAGUAUGCCCUTT against Vwa3b, inactive: 0.41; with GGAAGACAAAGAUUCUAGUTT against Abcc1, inactive: -1.06.
With GGCUGUGGUCAAGAUCAAGTT against Atp2b2 the figure was inactive: 0.0323; with GGAUAAUAAUCACUACAUGTT against Mov10l1, inactive: 0.873; with GGUCCACAGUACCACAUAATT against Tespa1, active: -3.2.
With “CCGUGUGGAAAAUAAAUUATT against 1700013G24Rik” the figure was inactive: -0.405; with CCAGACAUUGUCUUUAUGGTT against Xrn1, inactive: 0.147; with GGGAUUAUCUGAGAUGGAUTT against Btbd1, inactive: -1.
As for GGCCUGGAAGAUGAAGAUGTT against Arid3b, the z-score was inactive: -0.591.
To UUUAAGGACCUUGUAAGAATT against Olfr813 belongs inactive: 1.01; to GGAAUUGUACAAAUGACCUTT against Adam29, inactive: -0.429.
Turning to GGAAGAGAAAAGGAAGAAATT against Ankrd23, the z-score was inactive: 1.54.
With GGACUUGAUCAAUGGCUAUTT against Wscd1 the figure was inactive: -0.043.
To GCCUUCAGUACUGAUACCCTT against E2f2 belongs inactive: 0.739; to GCUCAGCAGGAAAUAACAGTT against Ccdc90b, active: -2.06; to GGACCUUCUUCAAGAAAGUTT against Olfr430, inactive: 0.0987.
With GUCCUCAUCGGUCUGUUUATT against Mb, the z-score was inactive: 0.551.
With GCAGCAGACACUCUGUACATT against Pcbp4 the figure was inactive: -0.0747; with GCAGUUCGAAUGGAGUGGUTT against Ube2v1, inactive: -1.07; with GGAAUAUCAGAAUACCAUCTT against Cnpy4, inactive: 0.89.
In the case of GCGCGGCUUCAGAAUUAUCTT against Aasdh, the z-score is inactive: 1.59.
GCCGGAUACCAACAUUCAATT against Parp11: the z-score is inactive: 1.86.
To GGAAGACCUGAACAAACUGTT against Cep19 belongs inactive: -0.425; to GCUGUUCUCGCCUAUGCAATT against Dll4, inactive: 0.0803; to GGAAUUUUCUAUAGUCCGGTT against Flrt2, inactive: 0.155.
Turning to “GGGAGGAGAGUGAUUGAGATT against A730013G03Rik”, the z-score was inactive: 0.682.
To GCUCAUAAAUAAAAAGACGTT against Mcm6 belongs inactive: 1.19.
To GGACUUCUUGUUUCUUACATT against Olfr1140 belongs inactive: 0.226; to GGAAAGAAGGACAAAUAAUTT against Spg20, inactive: -0.407; to GGUCAUGACUGGUGUGUCATT against Allc, inactive: -1.27.
To GGCCAACUUCGAAGAAAAGTT against Mrpl52 belongs inactive: 0.192; to GCACACCCAAUGCUCUAAGTT against Nprl3, inactive: 1.25; to GGGUAUCGUAUCAGAUCCCTT against Mdp1, inactive: 0.996.
In the case of CCAAAACCUAACUUGAAGATT against Rad51ap1, the z-score was inactive: 0.0668.
With GCUACGCUAUCCAAAUUCUTT against Minar1, the z-score is inactive: 0.0603.
To GCCAGUCAUGUCCAAAGUATT against Hdac1 belongs inactive: -0.282.
To GGGACUGUUUCAGCUAUACTT against H6pd belongs inactive: -1.59.
To GGAUACCAUUGUGGUCGCATT against Hck belongs inactive: -0.406; to GCUACAGCACAUGGGAUUCTT against Rhbdd3, inactive: -0.0382; to GAAUUGUCUUACUUGGAAATT against Gimap4, active: 2.05.
On to GGAGGAUGGUUUCAAUUCUTT against Pdha2, for which the z-score was inactive: 1.2.
To GGUACCAGACCUCAUAGUUTT against Cep95 belongs active: 2.16; to GGAUAUAAAUGACAACUCGTT against Pcdhb5, inactive: -0.256.
To GGGUAUAAGAGACAAGUAUTT against Cplx1 belongs inactive: -1.8; to GGAAGAGCAGGAGGAAACATT against Mea1, active: -2.01; to GGUGUACAACGUAUUCAUATT against Suv39h1, inactive: 0.728.
To GCCUUAACUAUGUUGUCUATT against Mgst1 belongs inactive: 0.893.
Regarding GGCAUCCACCCUAAGGUCATT against Keap1, the z-score was inactive: 1.03.
To GGAUGCUACAAAUUCACCUTT against Tma16 belongs inactive: -1.04; to GCCUGUCCUGUGAUGACAUTT against Olfr406, inactive: -1.96; to GGAACUAAAAGGACCCAAUTT against Tut1, inactive: 0.215.
To GGUUUUCUCGCUCAGACCATT against Wt1 belongs inactive: 0.352.
To GCUGGAAGAAAACUUCUAUTT against Jade2 belongs active: 2.49; to GGUUCUCAAGGAAUUGCCCTT against R3hdm1, inactive: -0.801.
For the sequence GCUAGGACUCAUAAUUUCCTT against Abcc4, the z-score was inactive: -0.16.
For GGAGGAAGAAUUUAUUGCATT against Ly6i, the z-score is inactive: 0.775.
To GGGAUUCCAAAAGAAGAAGTT against Acat1 belongs inactive: -0.336.
To GGCUUACAGUUCCAUAUGGTT against Olfr401 belongs inactive: -1.11; to GCACCAAGUAUAGGAUUAATT against Arhgap32, inactive: 0.809; to GCUUGUUCUCCGAAAAUGGTT against Cdc123, inactive: 0.252.
For the sequence GGUCAUGAUACAUGAUCCATT against Htr7, the z-score was inactive: -1.35.
To GGCAUUAACCUGAGAUGAUTT against Sprr2i belongs inactive: -1.42.
With CCAAGUCUAAAGGGAAUGGTT against S100a9 the figure was inactive: 0.112; with CCCAUAAGGGUGAAAUUCGTT against Tax1bp1, inactive: 0.444.
With GUGUUCAGGAAGCUGGCAGTT against Klra19 the figure was inactive: 1.98; with GGCUGAAAGAUUGUAUUGATT against Rwdd2b, inactive: -0.601; with GGCAGACUUUUGACAACUATT against Kcnh5, inactive: 0.933.
Consider CCAUAUGAGAAGAUGACACTT against Pdcl2, for which the z-score is inactive: -1.39.
To GGAUGGAUUCCCAGGAACATT against Crybb1 belongs inactive: -0.332.
Turning to GGUAUGGAUGAAGAACUAGTT against Pdhb, the z-score was inactive: 1.62.
On to “GGUUCCUCAUUUGUAGAUGTT against D830050J10Rik”, for which the z-score is inactive: -1.19.
Regarding GGAAAAUAAGCUGAAAUUCTT against Pygl, the z-score was inactive: 0.906.
To GGUAGAGCAAUUUCUAACCTT against Hpdl belongs inactive: 0.793; to GCUAUUAUUGGGCUUUACCTT against Olfr341, inactive: 0.512.
With CCAUUAUUGGCCCAUGCUCTT against Babam1 the figure was active: -2.75; with GGCACCAUGAACAAGUUACTT against Numbl, inactive: 0.976.
With UGAGUUGUUUCCAGCUAAATT against Uts2b the figure was inactive: -0.506; with GCUCUUGUUAUACUUAACATT against Hr, inactive: 1.6.
On to GGGAUCAGAGAUUUAGCUATT against Vmn1r201, for which the z-score was inactive: -1.29.
With GGUAUCAGAGAGCACUUCATT against Surf2 the figure was inactive: -0.548; with GGGUGCUGUGCACUAUUUCTT against Pcnx3, inactive: 0.0153; with CCUGCUGCAUUAUGGUUGATT against Grn, inactive: 0.11.
Regarding GCUAAGCAUGAAAUUACCCTT against Pipox, the z-score is inactive: 0.6.
On to GCUCGUGGCAUGUCUCUAUTT against Doc2g, for which the z-score was inactive: 0.379.
With CGAAAUGUUUGGUCAGAUCTT against Masp1 the figure was inactive: 1.68; with CCGUGGAUACUGCAUGUGATT against Dpf1, inactive: 0.98.
With GGGAUACUUGGUGAAUUGGTT against Actr6 the figure was inactive: -0.485; with “CCCUAUCGUGAUUUAUUGGTT against C130073F10Rik”, inactive: -1.33.
With GGAGCUGAUCCUGAAUCACTT against Tpbg the figure was inactive: 0.383.
For the sequence GGAGGUACUUCCGAUUGAGTT against Bpifa3, the z-score is inactive: 0.125.
With GGCCUGAUCAAGUUUCUGCTT against Psd the figure was inactive: 0.461; with GGCAUAUAAGGACUUCUACTT against C5ar1, inactive: -0.0324.
